Patent US12595435B2, “Detergent compositions” (The Procter & Gamble Company, priority 2022, dated 2026)

Test: Laundry test with SPME GC/MS headspace analysis of wet cotton tracers after laundering
Conditions: for % increase Ex 1 vs Ex A: headspace of the perfume ingredient on wet cotton tracers; for Headspace above wet cotton tracers, Ex 1 (PQ22): washed with detergent Ex 1 (PQ22); for Headspace above wet cotton tracers, Ex 1 (PQ22) / Headspace above wet cotton tracers, Ex A (nil-PQ22): after fourth wash cycle, SPME GC/MS, 10 min at 65° C.; for Headspace above wet cotton tracers, Ex A (nil-PQ22): washed with detergent Ex A (nil-PQ22)

Compound	% increase Ex 1 vs Ex A	Headspace above wet cotton tracers, Ex 1 (PQ22) [nmol/L]	Headspace above wet cotton tracers, Ex A (nil-PQ22) [nmol/L]
3-(3,3-dimethyl-2,3-dihydro-1H-inden-5-yl)propanal mixt. wth 3-(1,1-dimethyl-2,3-dihydro-1H-inden-5-y1)propanal [Neo Hivernal]	−58%	0.328	0.139
C=CCOC(=O)COCCC(C)C [Allyl amyl glycolate, allyl 2-(isopentyloxy)acetate]		0.233	4.901
CC1=CCC2CC1C2(C)C (stereo not drawn) [Alpha pinene, 2,6,6-trimethylbicyclo(3.1.1)hept-2-ene]	−33%	0.909	0.605
COc1ccc(C=O)cc1 [Anisic aldehyde, 4-methoxybenzaldehyde]		0.184	1.755
CC(=O)OCc1ccccc1 [Benzyl acetate, benzyl acetate]		0.227	4.405
COc1ccc2ccccc2c1 [Beta napthol methyl ether, 2-methoxynaphthalene]		9.801	19.990
CC(C)=CCCC(C)CCO (stereo not drawn) [Citronellol, 3,7-dimethyloct-6-en-1-ol]		1.244	2.582
CC(C)=CCCC(C)CC#N (stereo not drawn) [Citronellyl nitrile, 3,7-dimethyloct-6-enenitrile]		1.498	8.338
CC1/C=C/CCCCCCCCCCC(=O)C1 (stereo not drawn) [Delta muscenone, (E)-3-methylcyclopentadec-4-en-1-one]	−27%	23.019	16.689
CCOC(=O)C1OC1(C)c1ccccc1 (stereo not drawn) [Ethyl methyl phenyl glycidate, ethyl 3-methyl-3-phenyloxirane-2-carboxylate]	inf	0.000	0.038
CCOC(=O)C1=C(C)C=CCC1(C)C [Ethyl safranate, ethyl 2,6,6-trimethylcyclohexa-1,3-diene-1-carboxylate]	26%	2.207	2.777
O=C1CCCCCCCCCCCCCCO1 [Exaltolide total, oxacyclohexadecan-2-one]	−33%	25.157	16.977
CC(C)c1cccc(C(C)CC=O)c1 (stereo not drawn) [Florhydral, 3-(3-isopropylphenyl)butanal]	−60%	3.660	1.455
CCC(=O)OCC(C)(C)OC(C)C1CCCC(C)(C)C1 (stereo not drawn) [Helvetolide, 2-(1-(3,3-dimethylcyclohexyl)ethoxy)-2-methylpropyl propionate]	−50%	9.425	4.732
CC(=O)/C=C/C1=C(C)CCCC1(C)C [Ionone beta, (E)-4-(2,6,6-trimethylcyclohex-1-en-1-yl)but-3-en-2-one]	18%	2.299	2.72
CCCC(=O)OCCC(C)C [Isoamyl butyrate, isopentyl butyrate]		0.074	6.501
C=C(C)C1CC=C(C)C(=O)C1 (stereo not drawn) [Laevo carvone, 2-methyl-5-(prop-1-en-2-yl)cyclohex-2-en-1-one]		1.978	11.231
CC(C=O)Cc1ccc(C(C)(C)C)cc1 (stereo not drawn) [Lilial, 3-(4-(tert-butyl)phenyl)-2-methylpropanal]	−55%	13.175	5.941
C=CC(C)(O)CCC=C(C)C (stereo not drawn) [Linalool, 3,7-dimethylocta-1,6-dien-3-ol]	42%	1.132	1.613
C=CC(C)(CCC=C(C)C)OC(=O)CC (stereo not drawn) [Linalyl propionate, 3,7-dimethylocta-1,6-dien-3-yl propionate]	−50%	12.559	6.315
CC(=O)c1ccc2ccccc2c1 [Methyl Beta-napthyl ketone, 1-(naphthalen-2-yl)ethan-1-one]		0.610	2.243
COC(=O)c1ccccc1O [Methyl salicylate, methyl 2-hydroxybenzoate]		2.468	25.049
CCCCCCCC=O [Octyl Aldehyde, octanal]	16%	2.644	3.072
COc1ccc(C)cc1 [Para cresyl methyl ether, 1-methoxy-4-methylbenzene]		0.319	44.122
CC(C)(O)CCc1ccccc1 [Phenyl ethyl dimethyl carbinol, 2-methyl-4-phenylbutan-2-ol]		0.036	0.434
